Measurements reported in PubChem BioAssay AID1259405 (NCATS, 2018).
Aim: 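Mouse-designed siRNAs used to find CHO productivity engineering targets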 (primary screen). System: Chinese hamster CHO-K1 ovary cells with stable secreted eGFP expression. Knock-down reagent: single siRNA against mouse genes, 0.8 pmol siRNA per well (2 µl of 400 nM stock). Time to read-out: 3 days. Measured: 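Per-well intracellular GFP measured by laser scanning cytometry, plus viability from ATP luminescence, each relative to plate median of non-targeting control wells, in %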. Direction: GFP, % of control: higher = more GFP per well, higher productivity; viability (ATP), % of control: higher = more viable cells (more ATP). Rule for the call: 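Called active when intracellular GFP, relative to negative control, is at or above 120%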.
Here is one part, drawn at random, of about 50,000 deposited reagents. About 4,000 of all reagents (8%) count as active. 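Mouse siRNA library applied to hamster cells; one well for each siRNA.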 Entries without a mark were called inactive. The numbers tell different reagents against one gene apart.

The first 7 entries, to show the layout:
gene knocked down	reagent	GFP, % of control	viability (ATP), % of control
Insl5	1	48.6	68.1
Insl5	2	84.9	73.1
Insl5	3	119	84.3
Aven	1	37.6	47.1
Aven	2	84.4	93.1
Pmch	1	72.4	81.5
Pmch	2	85	70.5

The listing, from the start:
gene knocked down	reagent	GFP, % of control	viability (ATP), % of control
Insl5	1	48.6	68.1
Insl5	2	84.9	73.1
Insl5	3	119	84.3
Aven	1	37.6	47.1
Aven	2	84.4	93.1
Pmch	1	72.4	81.5
Pmch	2	85	70.5
Pmch	3	58	76.3
Ola1	1	69.2	71.7
Ola1	2	68.2	58.2
Ola1	3	53.8	76.7
Speer4d	1	102	39.6
Speer4d	2	81.3	108
Speer4d	3	141 (active)	123
Serinc1	1	86.8	72.5
Serinc1	2	88.2	57.7
Serinc1	3	34.1	35.1
Lpcat1	1	64.8	78.8
Lpcat1	2	154 (active)	48.6
Lpcat1	3	58.5	57.3
Calr	1	67.9	84.1
Calr	2	57.6	83.2
Arhgap9	1	102	79
Arhgap9	2	53.5	103
Arhgap9	3	91.2	115
Shmt1	1	98.8	57.1
Shmt1	2	63	31.6
Shmt1	3	68.6	56.5
Atp6v1h	1	64.9	42.9
Atp6v1h	2	87.1	79.5
Atp6v1h	3	44	38.1
Eya1	1	145 (active)	86.7
Eya1	2	92.7	49.8
Eya1	3	61.8	72.9
Kif17	1	91.4	81.7
Kif17	2	83.1	83.5
Or11g25	1	85.6	82.4
Or11g25	2	94.1	120
Or11g25	3	34.6	49.8
Ikzf4	1	106	88.4
Ikzf4	2	63.2	69.7
Ccr10	1	74.7	62.9
Ccr10	2	84.4	69.9
Ccr10	3	116	73.8
Rab3gap2	1	91.8	101
Rab3gap2	2	72.9	50.9
Rab3gap2	3	104	65.3
Pim1	1	99.7	79.6
Snrnp40	1	22.1	30.1
Snrnp40	2	62.6	89
Snrnp40	3	56.6	62.1
Ccdc186	1	132 (active)	104
Ccdc186	2	41.8	41.6
Ccdc186	3	84.3	105
Cysrt1	1	108	108
Cysrt1	2	82.1	55.6
Cysrt1	3	84.9	70
